Data source: PubChem BioAssay AID1224830 (NIAID, 2016)

Aim: 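Host factors that control LPS-induced TNF expression in human macrophages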 (primary screen)
System: human THP-1 monocytic leukaemia cells, TNF dual-luciferase reporter clone, PMA-differentiated to macrophage-like cells
Reagent: siRNA pool against human genes, 50 nM
Time to read-out: LPS for 4 h, given about 3 days after siRNA transfection
Challenge: bacterial LPS (TLR4 ligand), 10 ng/ml
Read-out: 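Ratio of firefly to renilla light, scaled to the plate median and expressed as a robust z-score per replicate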
Direction: TNF reporter robust z-score: higher = stronger TNF reporter response to LPS
Call rule: 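Each well counts as active if its z-score is over 2.8 or under -1.5; controls are left without a call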
Shown is a random part of about 18,000 reagents. Over the whole deposit, about 2,900 (16%) are marked active. 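Calls are made per well; low scores hint the gene aids the LPS response, high scores that it dampens it.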 Unmarked entries are inactive. Repeated entries: four replicate wells of each siRNA pool.

no.	Target gene	TNF reporter robust z-score
1	PITPNM3	-0.33
2	PITPNM3	0.25
3	PITPNM3	-1.06
4	PITPNM3	0.47
5	AAAS	-0.48
6	AAAS	-0.27
7	AAAS	0.24
8	AAAS	-0.39
9	TBCD	0.58
10	TBCD	0.33
11	TBCD	0.42
12	TBCD	0.32
13	QTRT1	-1.08
14	QTRT1	-0.27
15	QTRT1	-0.58
16	QTRT1	-0.14
17	ZFP42	-0.81
18	ZFP42	-0.46
19	ZFP42	-0.56
20	ZFP42	-0.59
21	NIBAN1	-1.75 (active)
22	NIBAN1	-1.3
23	NIBAN1	-1.06
24	NIBAN1	-1.42
25	TOX2	2.86 (active)
26	TOX2	0.32
27	TOX2	-0.44
28	TOX2	-0.06
29	HLA-DRB5	0
30	HLA-DRB5	-0.27
31	HLA-DRB5	-0.39
32	HLA-DRB5	-0.04

Next part, starting with the last 6 of the part before.
no.	Target gene	TNF reporter robust z-score
27	TOX2	-0.44
28	TOX2	-0.06
29	HLA-DRB5	0
30	HLA-DRB5	-0.27
31	HLA-DRB5	-0.39
32	HLA-DRB5	-0.04
33	PANK1	-0.01
34	PANK1	0.28
35	PANK1	0.91
36	PANK1	1.8
37	CMTM2	-0.79
38	CMTM2	0.19
39	CMTM2	-0.06
40	CMTM2	0.1
41	IFT22	-0.92
42	IFT22	0.14
43	IFT22	-0.47
44	IFT22	-0.38
45	UGGT2	-0.25
46	UGGT2	0.21
47	UGGT2	0.06
48	UGGT2	-0.02
49	HOXD11	-0.77
50	HOXD11	-0.37
51	HOXD11	0.42
52	HOXD11	-0.35
53	CFAP43	0.98
54	CFAP43	1.8
55	CFAP43	0.6
56	CFAP43	1.12
57	KLRB1	0.44
58	KLRB1	0.74
59	KLRB1	-0.45
60	KLRB1	1.46
61	NAPG	2.99 (active)
62	NAPG	3.24 (active)
63	NAPG	1.06
64	NAPG	1.03
65	YIPF1	1.35
66	YIPF1	0.22
67	YIPF1	0.39
68	YIPF1	0.48
69	SMC4	-0.09
70	SMC4	0.58
71	SMC4	0.43
72	SMC4	1.48
73	ANKRD37	-0.61
74	ANKRD37	1.36
75	ANKRD37	2.14
76	ANKRD37	2.52
